{"source": "the supplement of paper PMC8728848", "test_in_all_cases": "glycan array binding signal (z-score within array); higher = stronger binding", "conditions_in_all_cases": "glycan notation: IUPAC condensed, linker removed", "key": {"[1]": {"molecular_target": "Neu5Ac(a2-3)Gal(b1-3)GlcNAc(b1-2)Man", "method_in_brief": "(§1)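 Glycan array binding is given as a within-array Z-score, which can be read as non-binding when negative. The arrays, 3228 of them, came from the Consortium for Functional Glycomics database and were retained only where the protein sequence was available. Z-scores were averaged across arrays of the same protein sequence at different concentrations or buffers and across linkers.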"}, "[2]": {"molecular_target": "Neu5Ac(a2-3)Gal(b1-3)GlcNAc(b1-2)Man(a1-3)[GlcNAc(b1-4)][Neu5Ac(a2-3)Gal(b1-3)GlcNAc(b1-2)Man(a1-6)]Man(b1-4)GlcNAc(b1-4)GlcNAc", "method_in_brief": "as §1"}, "[3]": {"molecular_target": "Neu5Ac(a2-3)Gal(b1-3)GlcNAc(b1-2)Man(a1-3)[Neu5Ac(a2-3)Gal(b1-3)GlcNAc(b1-2)Man(a1-6)]Man(b1-4)GlcNAc(b1-4)GlcNAc", "method_in_brief": "as §1"}, "[4]": {"molecular_target": "Neu5Ac(a2-3)Gal(b1-3)GlcNAc(b1-2)[Neu5Ac(a2-3)Gal(b1-3)GlcNAc(b1-4)]Man(a1-6)[Neu5Ac(a2-3)Gal(b1-3)GlcNAc(b1-2)Man(a1-3)]Man(b1-4)GlcNAc(b1-4)GlcNAc", "method_in_brief": "as §1"}, "[5]": {"molecular_target": "Neu5Ac(a2-3)Gal(b1-3)GlcNAc(b1-3)Gal(b1-3)GlcNAc", "method_in_brief": "as §1"}, "[6]": {"molecular_target": "Neu5Ac(a2-3)Gal(b1-3)GlcNAc(b1-3)Gal(b1-4)GlcNAc", "method_in_brief": "as §1"}, "[7]": {"molecular_target": "Neu5Ac(a2-3)Gal(b1-3)GlcNAc(b1-3)GalNAc", "method_in_brief": "as §1"}, "[8]": {"molecular_target": "Neu5Ac(a2-3)Gal(b1-3)GlcNAc(b1-6)GalNAc", "method_in_brief": "as §1"}, "[9]": {"molecular_target": "Neu5Ac(a2-3)Gal(b1-3)GlcNAc6S", "method_in_brief": "as §1"}, "[10]": {"molecular_target": "Neu5Ac(a2-3)Gal(b1-3)[Fuc(a1-4)]GlcNAc", "method_in_brief": "as §1"}, "[11]": {"molecular_target": "Neu5Ac(a2-3)Gal(b1-3)[Fuc(a1-4)]GlcNAc(b1-3)Gal(b1-3)[Fuc(a1-4)]GlcNAc", "method_in_brief": "as §1"}, "[12]": {"molecular_target": "Neu5Ac(a2-3)Gal(b1-3)[Fuc(a1-4)]GlcNAc(b1-3)Gal(b1-4)[Fuc(a1-3)]GlcNAc", "method_in_brief": "as §1"}, "[13]": {"molecular_target": "Neu5Ac(a2-3)Gal(b1-3)[GlcNAc(b1-6)]GalNAc", "method_in_brief": "as §1"}, "[14]": {"molecular_target": "Neu5Ac(a2-3)Gal(b1-3)[Neu5Ac(a2-6)]GalNAc", "method_in_brief": "as §1"}, "[15]": {"molecular_target": "Neu5Ac(a2-3)Gal(b1-3)[Neu5Ac(a2-6)]GlcNAc(b1-3)[Fuc(a1-3)[Gal(b1-4)]GlcNAc(b1-6)]Gal(b1-4)Glc", "method_in_brief": "as §1"}, "[16]": {"molecular_target": "Neu5Ac(a2-3)Gal(b1-3)]Neu5Ac(a2-3)Gal(b1-4)]GlcNAc", "method_in_brief": "as §1"}, "[17]": {"molecular_target": "Neu5Ac(a2-3)Gal(b1-4)Glc", "method_in_brief": "as §1"}, "[18]": {"molecular_target": "Neu5Ac(a2-3)Gal(b1-4)GlcNAc", "method_in_brief": "as §1"}, "[19]": {"molecular_target": "Neu5Ac(a2-3)Gal(b1-4)GlcNAc(b1-2)Man", "method_in_brief": "as §1"}, "[20]": {"molecular_target": "Neu5Ac(a2-3)Gal(b1-4)GlcNAc(b1-2)Man(a1-3)[GlcNAc(b1-4)][Neu5Ac(a2-3)Gal(b1-4)GlcNAc(b1-2)Man(a1-6)]Man(b1-4)GlcNAc(b1-4)GlcNAc", "method_in_brief": "as §1"}, "[21]": {"molecular_target": "Neu5Ac(a2-3)Gal(b1-4)GlcNAc(b1-2)Man(a1-3)[Neu5Ac(a2-3)Gal(b1-4)GlcNAc(b1-2)Man(a1-6)]Man(b1-4)GlcNAc(b1-4)GlcNAc", "method_in_brief": "as §1"}, "[22]": {"molecular_target": "Neu5Ac(a2-3)Gal(b1-4)GlcNAc(b1-2)Man(a1-3)[Neu5Ac(a2-3)Gal(b1-4)GlcNAc(b1-2)Man(a1-6)]Man(b1-4)GlcNAc(b1-4)[Fuc(a1-6)]GlcNAc", "method_in_brief": "as §1"}, "[23]": {"molecular_target": "Neu5Ac(a2-3)Gal(b1-4)GlcNAc(b1-2)Man(a1-3)[Neu5Ac(a2-6)Gal(b1-4)GlcNAc(b1-2)Man(a1-6)]Man(b1-4)GlcNAc(b1-4)GlcNAc", "method_in_brief": "as §1"}, "[24]": {"molecular_target": "Neu5Ac(a2-3)Gal(b1-4)GlcNAc(b1-2)[Neu5Ac(a2-3)Gal(b1-4)GlcNAc(b1-4)]Man(a1-3)[GlcNAc(b1-4)][Neu5Ac(a2-3)Gal(b1-4)GlcNAc(b1-2)[Neu5Ac(a2-3)Gal(b1-4)GlcNAc(b1-6)]Man(a1-6)]Man(b1-4)GlcNAc(b1-4)GlcNAc", "method_in_brief": "as §1"}, "[25]": {"molecular_target": "Neu5Ac(a2-3)Gal(b1-4)GlcNAc(b1-2)[Neu5Ac(a2-3)Gal(b1-4)GlcNAc(b1-4)]Man(a1-3)[GlcNAc(b1-4)][Neu5Ac(a2-3)Gal(b1-4)GlcNAc(b1-4)Man(a1-6)]Man(b1-4)GlcNAc(b1-4)GlcNAc", "method_in_brief": "as §1"}, "[26]": {"molecular_target": "Neu5Ac(a2-3)Gal(b1-4)GlcNAc(b1-2)[Neu5Ac(a2-3)Gal(b1-4)GlcNAc(b1-6)]Man(a1-6)[Neu5Ac(a2-3)Gal(b1-4)GlcNAc(b1-2)Man(a1-3)][GlcNAc(b1-4)]Man(b1-4)GlcNAc(b1-4)GlcNAc", "method_in_brief": "as §1"}, "[27]": {"molecular_target": "Neu5Ac(a2-3)Gal(b1-4)GlcNAc(b1-3)Gal", "method_in_brief": "as §1"}, "[28]": {"molecular_target": "Neu5Ac(a2-3)Gal(b1-4)GlcNAc(b1-3)Gal(b1-3)GlcNAc", "method_in_brief": "as §1"}, "[29]": {"molecular_target": "Neu5Ac(a2-3)Gal(b1-4)GlcNAc(b1-3)Gal(b1-4)GlcNAc", "method_in_brief": "as §1"}, "[30]": {"molecular_target": "Neu5Ac(a2-3)Gal(b1-4)GlcNAc(b1-3)Gal(b1-4)GlcNAc(b1-2)Man(a1-3)[Neu5Ac(a2-3)Gal(b1-4)GlcNAc(b1-3)Gal(b1-4)GlcNAc(b1-2)Man(a1-6)]Man(b1-4)GlcNAc(b1-4)GlcNAc", "method_in_brief": "as §1"}, "[31]": {"molecular_target": "Neu5Ac(a2-3)Gal(b1-4)GlcNAc(b1-3)Gal(b1-4)GlcNAc(b1-3)Gal(b1-4)GlcNAc", "method_in_brief": "as §1"}, "[32]": {"molecular_target": "Neu5Ac(a2-3)Gal(b1-4)GlcNAc(b1-3)Gal(b1-4)GlcNAc(b1-3)Gal(b1-4)GlcNAc(b1-2)Man(a1-3)[Neu5Ac(a2-3)Gal(b1-4)GlcNAc(b1-3)Gal(b1-4)GlcNAc(b1-3)Gal(b1-4)GlcNAc(b1-2)Man(a1-6)]GalNAc", "method_in_brief": "as §1"}, "[33]": {"molecular_target": "Neu5Ac(a2-3)Gal(b1-4)GlcNAc(b1-3)Gal(b1-4)GlcNAc(b1-3)GalNAc", "method_in_brief": "as §1"}, "[34]": {"molecular_target": "Neu5Ac(a2-3)Gal(b1-4)GlcNAc(b1-3)Gal(b1-4)GlcNAc(b1-3)[Neu5Ac(a2-3)Gal(b1-4)GlcNAc(b1-3)Gal(b1-4)GlcNAc(b1-6)]GalNAc", "method_in_brief": "as §1"}, "[35]": {"molecular_target": "Neu5Ac(a2-3)Gal(b1-4)GlcNAc(b1-3)Gal(b1-4)GlcNAc(b1-6)[Gal(b1-3)]GalNAc", "method_in_brief": "as §1"}, "[36]": {"molecular_target": "Neu5Ac(a2-3)Gal(b1-4)GlcNAc(b1-3)Gal(b1-4)[Fuc(a1-3)]GlcNAc", "method_in_brief": "as §1"}, "[37]": {"molecular_target": "Neu5Ac(a2-3)Gal(b1-4)GlcNAc(b1-3)GalNAc", "method_in_brief": "as §1"}, "[38]": {"molecular_target": "Neu5Ac(a2-3)Gal(b1-4)GlcNAc(b1-3)[Neu5Ac(a2-3)Gal(b1-4)GlcNAc(b1-6)]GalNAc", "method_in_brief": "as §1"}}, "note": "The other results are listed elsewhere or left out."}
{"binder": "Vd7LysM (Verticillium dahliae) (protein) RRGPEPKYPPAAGTSSYCSYWVDYEGDKSCSRVLEDNVVVLKDFARWNPTVGADCSGIKAGNSYCVEAFGEPEPIEVTTTTRAATTTTQPTATTTTFANGIATPQPTQSGMVTNCNKFHWIAEGVSCSQVISFQKITLADFVKWNPSVKSDCSGMWAGVNVCVGVVGSSTDTAKPTTTAPSNGVVTPQPTQPSMVTNCNKFHWIAKGVTCQQVISYQKISLADFVKWNPSVLSDCSGMWAEVQVCVGVIGSTPTTLATTTTTAGNGVSTPLPTQPGMVTNCAKFHWVAKGVTCNQIYSFQKITLEQFVSYNPTVKSDCSGMQAEVQVCVGLIAGTTPTTTRPPTTTAPGNGVSTPQPTQPGMVTNCAKFHWVAKGVTCNQIYSFQKITLEQFVSFNPTVKSDCTGMQAEVNVCVGLIGGNPTPTQTGNGIATPTPIQPGMVSNCKKFHWIAQGVTCQQVISFQKITLADFVKWNTGVGSDCRTMWAETNVCVGV", "values": [{"measurement": "glycan array binding signal (z-score)", "setting": "[1]", "value": -1.16}, {"measurement": "glycan array binding signal (z-score)", "setting": "[2]", "value": -0.378}, {"measurement": "glycan array binding signal (z-score)", "setting": "[3]", "value": 0.034}, {"measurement": "glycan array binding signal (z-score)", "setting": "[4]", "value": 0.591}, {"measurement": "glycan array binding signal (z-score)", "setting": "[5]", "value": 1.7}, {"measurement": "glycan array binding signal (z-score)", "setting": "[6]", "value": 1.24}, {"measurement": "glycan array binding signal (z-score)", "setting": "[7]", "value": -0.664}, {"measurement": "glycan array binding signal (z-score)", "setting": "[8]", "value": -0.432}, {"measurement": "glycan array binding signal (z-score)", "setting": "[9]", "value": -0.528}, {"measurement": "glycan array binding signal (z-score)", "setting": "[10]", "value": -0.158}, {"measurement": "glycan array binding signal (z-score)", "setting": "[11]", "value": -0.022}, {"measurement": "glycan array binding signal (z-score)", "setting": "[12]", "value": -0.443}, {"measurement": "glycan array binding signal (z-score)", "setting": "[13]", "value": -0.402}, {"measurement": "glycan array binding signal (z-score)", "setting": "[14]", "value": -0.762}, {"measurement": "glycan array binding signal (z-score)", "setting": "[15]", "value": -0.198}, {"measurement": "glycan array binding signal (z-score)", "setting": "[16]", "value": -0.931}, {"measurement": "glycan array binding signal (z-score)", "setting": "[17]", "value": 0.515}, {"measurement": "glycan array binding signal (z-score)", "setting": "[18]", "value": 0.313}, {"measurement": "glycan array binding signal (z-score)", "setting": "[19]", "value": 0.356}, {"measurement": "glycan array binding signal (z-score)", "setting": "[20]", "value": -0.193}, {"measurement": "glycan array binding signal (z-score)", "setting": "[21]", "value": -0.705}, {"measurement": "glycan array binding signal (z-score)", "setting": "[22]", "value": 1.45}, {"measurement": "glycan array binding signal (z-score)", "setting": "[23]", "value": -0.13}, {"measurement": "glycan array binding signal (z-score)", "setting": "[24]", "value": -0.515}, {"measurement": "glycan array binding signal (z-score)", "setting": "[25]", "value": -1.67}, {"measurement": "glycan array binding signal (z-score)", "setting": "[26]", "value": -1.32}, {"measurement": "glycan array binding signal (z-score)", "setting": "[27]", "value": -0.515}, {"measurement": "glycan array binding signal (z-score)", "setting": "[28]", "value": 1.03}, {"measurement": "glycan array binding signal (z-score)", "setting": "[29]", "value": -1.16}, {"measurement": "glycan array binding signal (z-score)", "setting": "[30]", "value": 2.5}, {"measurement": "glycan array binding signal (z-score)", "setting": "[31]", "value": 0.205}, {"measurement": "glycan array binding signal (z-score)", "setting": "[32]", "value": -1.55}, {"measurement": "glycan array binding signal (z-score)", "setting": "[33]", "value": -0.032}, {"measurement": "glycan array binding signal (z-score)", "setting": "[34]", "value": -0.119}, {"measurement": "glycan array binding signal (z-score)", "setting": "[35]", "value": 1.94}, {"measurement": "glycan array binding signal (z-score)", "setting": "[36]", "value": 0.578}, {"measurement": "glycan array binding signal (z-score)", "setting": "[37]", "value": -0.173}, {"measurement": "glycan array binding signal (z-score)", "setting": "[38]", "value": -0.602}]}
